Results are given in words; binding and its absence hold for the method and conditions named. In cells and extracts the contact can be indirect. Some entries that bind do so weakly or less than the wild type. Each block holds one substance with its values, some of them ahead of it.
How the values were obtained:
GFP-Smad2/C (266–467) = GFP-Smad2/C (266–467) (UniProt Q15796); assay: co-IP; lysates of X293T cells expressing the tagged proteins, immunoprecipitated with anti-GFP antibody; lysis buffer 10 mM Tris-HCl pH 7.4, 140 mM NaCl, 5 mM EDTA, 1% NP40
GST-Smad2/MH2 = GST-Smad2/MH2 (UniProt Q15796); assay: pull-down; total cell lysates of HepG2 or Huh6 expressing GFP-GREB1 incubated 1 h with 20 μg GST fusion bound to glutathione-Sepharose beads; washed three times with lysis buffer; only the target purified
[1] = target: Smad2 (endogenous, HepG2) (human (endogenous in HepG2)) (UniProt Q15796); assay: co-IP; endogenous proteins; HepG2 lysates (control or GREB1 siRNA) immunoprecipitated with anti-Smad2/3 antibody; lysis buffer 10 mM Tris-HCl pH 7.4, 140 mM NaCl, 5 mM EDTA, 1% NP40
[2] = target: Smad3 (endogenous, HepG2) (human (endogenous in HepG2)) (UniProt P84022); assay: as above

Protein sequences, listed by entry. Tags and fused reporters are not part of them. Lines headed by an entry give the natural chain unless they say otherwise; changes in a name come on top. Residues count along the entry.
UniProt Q15796: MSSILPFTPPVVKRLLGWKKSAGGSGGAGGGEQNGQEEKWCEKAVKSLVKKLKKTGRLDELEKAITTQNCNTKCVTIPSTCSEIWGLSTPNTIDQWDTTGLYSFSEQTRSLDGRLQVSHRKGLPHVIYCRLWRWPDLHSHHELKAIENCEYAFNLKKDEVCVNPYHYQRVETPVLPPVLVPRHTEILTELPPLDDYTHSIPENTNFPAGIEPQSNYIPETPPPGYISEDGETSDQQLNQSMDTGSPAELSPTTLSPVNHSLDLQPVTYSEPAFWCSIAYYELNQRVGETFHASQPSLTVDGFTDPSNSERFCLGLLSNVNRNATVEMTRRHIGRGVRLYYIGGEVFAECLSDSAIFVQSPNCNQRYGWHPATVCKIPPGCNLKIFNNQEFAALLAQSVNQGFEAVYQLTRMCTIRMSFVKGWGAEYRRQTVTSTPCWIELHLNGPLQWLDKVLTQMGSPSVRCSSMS
GFP-Smad2/C (266–467): residues 266-467 of Q15796
GST-Smad2/MH2: residues 274-467 of Q15796
UniProt P84022: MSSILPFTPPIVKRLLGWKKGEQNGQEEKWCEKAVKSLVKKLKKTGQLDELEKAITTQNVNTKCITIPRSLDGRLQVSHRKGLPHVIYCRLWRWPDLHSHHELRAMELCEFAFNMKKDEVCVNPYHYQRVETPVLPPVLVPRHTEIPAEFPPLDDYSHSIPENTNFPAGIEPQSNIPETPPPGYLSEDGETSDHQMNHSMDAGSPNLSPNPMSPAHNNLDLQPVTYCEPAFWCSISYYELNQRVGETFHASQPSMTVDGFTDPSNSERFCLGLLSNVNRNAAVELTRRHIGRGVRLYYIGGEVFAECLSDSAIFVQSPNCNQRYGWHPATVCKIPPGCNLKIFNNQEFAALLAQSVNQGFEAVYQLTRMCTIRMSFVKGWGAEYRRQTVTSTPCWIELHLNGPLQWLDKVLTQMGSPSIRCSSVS
UniProt Q09472: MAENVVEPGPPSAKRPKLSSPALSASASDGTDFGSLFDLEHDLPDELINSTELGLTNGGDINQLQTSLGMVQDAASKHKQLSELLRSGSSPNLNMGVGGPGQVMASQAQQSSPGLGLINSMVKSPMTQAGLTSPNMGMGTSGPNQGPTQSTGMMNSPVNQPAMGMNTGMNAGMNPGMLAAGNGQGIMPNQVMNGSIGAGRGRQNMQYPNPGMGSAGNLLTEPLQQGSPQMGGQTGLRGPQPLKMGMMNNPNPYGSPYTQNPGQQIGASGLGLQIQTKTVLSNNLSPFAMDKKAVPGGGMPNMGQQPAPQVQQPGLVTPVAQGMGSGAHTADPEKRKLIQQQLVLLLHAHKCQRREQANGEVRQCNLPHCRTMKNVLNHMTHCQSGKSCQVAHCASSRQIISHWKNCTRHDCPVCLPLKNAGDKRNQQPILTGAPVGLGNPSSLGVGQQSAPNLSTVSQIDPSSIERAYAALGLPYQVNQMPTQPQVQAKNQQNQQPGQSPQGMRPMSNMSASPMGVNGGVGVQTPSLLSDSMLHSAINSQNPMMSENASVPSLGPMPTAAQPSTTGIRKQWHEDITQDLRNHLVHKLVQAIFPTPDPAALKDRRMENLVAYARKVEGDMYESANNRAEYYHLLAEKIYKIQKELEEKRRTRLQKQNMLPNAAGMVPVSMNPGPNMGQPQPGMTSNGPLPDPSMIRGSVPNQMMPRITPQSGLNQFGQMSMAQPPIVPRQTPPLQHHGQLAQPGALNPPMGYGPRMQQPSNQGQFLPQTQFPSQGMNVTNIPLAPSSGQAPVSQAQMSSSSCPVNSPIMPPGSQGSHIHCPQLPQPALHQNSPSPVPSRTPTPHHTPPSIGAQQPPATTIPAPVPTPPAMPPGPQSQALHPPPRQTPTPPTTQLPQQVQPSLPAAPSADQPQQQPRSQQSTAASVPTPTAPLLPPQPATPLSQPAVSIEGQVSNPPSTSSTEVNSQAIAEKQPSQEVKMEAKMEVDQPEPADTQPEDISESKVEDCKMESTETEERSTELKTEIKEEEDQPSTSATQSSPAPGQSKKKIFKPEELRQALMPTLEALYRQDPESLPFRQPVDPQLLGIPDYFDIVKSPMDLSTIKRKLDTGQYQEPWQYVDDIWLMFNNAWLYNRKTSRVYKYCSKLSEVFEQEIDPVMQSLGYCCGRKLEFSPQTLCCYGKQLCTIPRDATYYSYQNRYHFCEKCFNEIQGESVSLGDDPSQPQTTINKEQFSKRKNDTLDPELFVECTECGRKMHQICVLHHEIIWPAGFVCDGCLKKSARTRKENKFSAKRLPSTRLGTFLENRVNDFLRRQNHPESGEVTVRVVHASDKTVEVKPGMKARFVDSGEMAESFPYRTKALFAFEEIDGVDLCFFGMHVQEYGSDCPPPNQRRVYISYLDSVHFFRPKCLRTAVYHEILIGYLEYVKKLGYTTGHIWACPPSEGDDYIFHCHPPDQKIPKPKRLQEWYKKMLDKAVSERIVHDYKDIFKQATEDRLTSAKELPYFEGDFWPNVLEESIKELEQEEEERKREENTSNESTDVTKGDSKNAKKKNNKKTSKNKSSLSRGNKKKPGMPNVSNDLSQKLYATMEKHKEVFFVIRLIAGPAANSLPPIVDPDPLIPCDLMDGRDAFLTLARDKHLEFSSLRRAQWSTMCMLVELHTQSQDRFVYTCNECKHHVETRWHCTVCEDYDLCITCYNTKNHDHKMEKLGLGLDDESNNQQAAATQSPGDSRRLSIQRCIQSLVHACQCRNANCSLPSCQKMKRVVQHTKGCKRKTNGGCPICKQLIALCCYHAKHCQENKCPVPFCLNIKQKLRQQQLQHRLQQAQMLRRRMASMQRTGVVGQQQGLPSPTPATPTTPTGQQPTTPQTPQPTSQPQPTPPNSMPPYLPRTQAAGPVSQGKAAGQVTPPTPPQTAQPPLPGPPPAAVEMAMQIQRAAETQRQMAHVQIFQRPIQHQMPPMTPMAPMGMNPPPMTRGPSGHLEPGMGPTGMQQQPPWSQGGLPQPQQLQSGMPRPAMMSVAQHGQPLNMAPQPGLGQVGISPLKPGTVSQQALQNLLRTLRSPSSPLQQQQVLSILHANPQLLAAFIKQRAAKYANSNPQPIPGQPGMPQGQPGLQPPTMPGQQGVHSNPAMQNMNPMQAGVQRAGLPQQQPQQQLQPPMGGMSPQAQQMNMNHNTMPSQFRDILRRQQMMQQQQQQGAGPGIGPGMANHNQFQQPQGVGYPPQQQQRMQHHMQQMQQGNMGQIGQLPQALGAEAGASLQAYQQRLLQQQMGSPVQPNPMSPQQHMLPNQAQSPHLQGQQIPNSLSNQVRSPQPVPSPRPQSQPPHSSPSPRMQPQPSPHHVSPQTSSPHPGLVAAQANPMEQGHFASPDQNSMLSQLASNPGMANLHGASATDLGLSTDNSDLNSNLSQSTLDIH
UniProt Q13485: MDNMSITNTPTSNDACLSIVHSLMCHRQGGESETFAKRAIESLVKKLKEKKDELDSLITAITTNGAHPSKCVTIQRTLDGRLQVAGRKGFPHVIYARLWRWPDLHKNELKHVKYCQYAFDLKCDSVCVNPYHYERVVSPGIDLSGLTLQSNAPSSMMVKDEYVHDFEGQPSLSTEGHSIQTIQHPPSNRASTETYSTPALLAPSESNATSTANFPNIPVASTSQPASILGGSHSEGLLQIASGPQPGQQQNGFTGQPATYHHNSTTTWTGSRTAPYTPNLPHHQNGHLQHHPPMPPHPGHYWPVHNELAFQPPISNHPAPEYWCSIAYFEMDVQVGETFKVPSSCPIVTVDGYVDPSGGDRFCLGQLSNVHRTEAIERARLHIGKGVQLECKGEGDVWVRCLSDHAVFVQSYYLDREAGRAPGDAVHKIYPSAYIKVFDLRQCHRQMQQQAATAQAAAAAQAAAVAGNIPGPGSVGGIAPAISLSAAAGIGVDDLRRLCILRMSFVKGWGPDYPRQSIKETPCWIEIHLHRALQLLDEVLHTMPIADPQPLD

binding (GFP-Smad2/C (266–467)): binds
Substance: p300 (co-precipitated with GFP-Smad2/C) (from UniProt Q09472 1-2414)

binding (GST-Smad2/MH2): binds
Substance: Smad4 (endogenous, HepG2) (from UniProt Q13485 1-552)

binding [1]: binds
binding [2]: binds
Substance: p300 (endogenous, HepG2) (from UniProt Q09472 1-2414)

Reference: article PMC6713762
